This is an account of results in EP1671630A2, “L-Arginine based formulations for treating diseases and methods of using the same” (Angiogenix, Inc., priority 1999, dated 2000).

The test system of the data set is bovine aortic endothelial cells. The data set is described as follows: Characterization of L-arginine transport system (uptake of [3H]-LA). It counts as cell-based.

As for `N=C(N)NCCC[C@H](N)C(=O)O` [L-arginine], the “passive diffusion as a percent of total cellular LA uptake” value (15 minutes of uptake) amounted to 5% and the “passive diffusion as a percent of total cellular LA uptake” value (60 minutes of uptake) stood at 1.5%.

As for “L-[2,3,4,5-^3H]-arginine monohydrochloride [[^3H]-LA]”, the “share of [^3H]-LA delivered to cells by y+ transporter” value (BAEC, 20nM [^3H]-LA) is listed as ~ 85%. For the same compound, the “share of total transport by B^α+ transporter system” value (BAEC, average) turned out to be 10%.
